According to paper PMC8096222:
Results are given in words; binding and its absence hold for the method and conditions named. For some of these results: Binding seen in cells or lysates may run through a third protein. Some entries that bind do so weakly or less than the wild type.

Sequences of proteins named here, by UniProt entry; tags and fusion partners are left off. A change or cut given only in a name is not applied to a line headed by its entry. A line that says so, or that is headed by a name, gives the form on record, which may keep a tag or linker. Residues count along the entry.
UniProt Q93009: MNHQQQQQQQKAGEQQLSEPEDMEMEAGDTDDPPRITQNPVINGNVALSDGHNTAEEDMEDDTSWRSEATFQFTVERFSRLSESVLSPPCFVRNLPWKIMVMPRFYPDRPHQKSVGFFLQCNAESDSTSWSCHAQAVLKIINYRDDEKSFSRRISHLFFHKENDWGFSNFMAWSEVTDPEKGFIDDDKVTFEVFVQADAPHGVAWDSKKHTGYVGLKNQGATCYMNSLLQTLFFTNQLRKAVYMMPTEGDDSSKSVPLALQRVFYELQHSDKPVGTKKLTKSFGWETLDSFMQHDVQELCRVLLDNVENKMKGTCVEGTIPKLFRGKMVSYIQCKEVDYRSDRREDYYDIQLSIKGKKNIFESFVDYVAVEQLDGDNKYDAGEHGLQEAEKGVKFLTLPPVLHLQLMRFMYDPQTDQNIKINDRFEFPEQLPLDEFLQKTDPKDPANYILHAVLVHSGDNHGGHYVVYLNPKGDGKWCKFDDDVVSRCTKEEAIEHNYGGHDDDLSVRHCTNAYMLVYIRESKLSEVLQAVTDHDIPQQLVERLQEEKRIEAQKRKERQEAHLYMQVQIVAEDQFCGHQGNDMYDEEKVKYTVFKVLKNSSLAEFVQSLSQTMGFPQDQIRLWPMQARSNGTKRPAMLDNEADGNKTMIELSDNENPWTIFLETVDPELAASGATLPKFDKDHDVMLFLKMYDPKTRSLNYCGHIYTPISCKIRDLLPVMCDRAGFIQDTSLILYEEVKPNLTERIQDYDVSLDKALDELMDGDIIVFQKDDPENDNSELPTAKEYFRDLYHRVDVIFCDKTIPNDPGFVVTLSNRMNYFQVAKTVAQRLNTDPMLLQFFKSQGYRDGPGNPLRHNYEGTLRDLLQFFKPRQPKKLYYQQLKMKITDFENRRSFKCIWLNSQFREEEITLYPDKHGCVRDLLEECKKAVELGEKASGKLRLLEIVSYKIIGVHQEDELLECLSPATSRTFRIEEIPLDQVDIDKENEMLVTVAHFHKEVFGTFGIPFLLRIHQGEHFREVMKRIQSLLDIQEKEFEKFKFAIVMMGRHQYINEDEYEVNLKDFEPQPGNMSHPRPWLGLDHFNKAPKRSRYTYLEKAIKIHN
USP7 MATH domain (His-tagged deletion mutant of USP7): residues 68-195 of Q93009
UniProt Q15910: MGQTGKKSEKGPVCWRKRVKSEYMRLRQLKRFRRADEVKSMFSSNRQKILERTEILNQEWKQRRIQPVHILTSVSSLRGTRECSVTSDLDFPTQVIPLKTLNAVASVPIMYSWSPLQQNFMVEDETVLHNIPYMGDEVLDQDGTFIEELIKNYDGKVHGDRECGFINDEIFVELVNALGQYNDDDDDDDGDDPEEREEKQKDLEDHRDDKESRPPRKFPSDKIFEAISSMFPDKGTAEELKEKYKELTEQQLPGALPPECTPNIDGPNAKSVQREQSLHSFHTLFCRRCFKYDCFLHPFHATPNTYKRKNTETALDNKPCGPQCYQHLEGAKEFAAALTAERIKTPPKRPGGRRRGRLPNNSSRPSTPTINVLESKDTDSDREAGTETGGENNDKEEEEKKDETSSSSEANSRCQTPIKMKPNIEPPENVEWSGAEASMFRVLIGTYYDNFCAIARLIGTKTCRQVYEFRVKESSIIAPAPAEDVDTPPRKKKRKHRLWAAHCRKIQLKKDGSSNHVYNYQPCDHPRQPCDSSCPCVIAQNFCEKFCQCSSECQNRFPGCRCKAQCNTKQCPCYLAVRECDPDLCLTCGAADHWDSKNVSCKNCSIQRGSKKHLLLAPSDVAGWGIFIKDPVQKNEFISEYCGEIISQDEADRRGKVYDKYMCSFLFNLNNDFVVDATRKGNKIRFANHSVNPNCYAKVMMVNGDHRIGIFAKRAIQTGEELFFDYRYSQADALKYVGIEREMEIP
GST-fused EZH2 N1 domain (aa 1-173): residues 1-173 of Q15910
EZH2, in vitro-transcribed/translated (Q15910-2, form named): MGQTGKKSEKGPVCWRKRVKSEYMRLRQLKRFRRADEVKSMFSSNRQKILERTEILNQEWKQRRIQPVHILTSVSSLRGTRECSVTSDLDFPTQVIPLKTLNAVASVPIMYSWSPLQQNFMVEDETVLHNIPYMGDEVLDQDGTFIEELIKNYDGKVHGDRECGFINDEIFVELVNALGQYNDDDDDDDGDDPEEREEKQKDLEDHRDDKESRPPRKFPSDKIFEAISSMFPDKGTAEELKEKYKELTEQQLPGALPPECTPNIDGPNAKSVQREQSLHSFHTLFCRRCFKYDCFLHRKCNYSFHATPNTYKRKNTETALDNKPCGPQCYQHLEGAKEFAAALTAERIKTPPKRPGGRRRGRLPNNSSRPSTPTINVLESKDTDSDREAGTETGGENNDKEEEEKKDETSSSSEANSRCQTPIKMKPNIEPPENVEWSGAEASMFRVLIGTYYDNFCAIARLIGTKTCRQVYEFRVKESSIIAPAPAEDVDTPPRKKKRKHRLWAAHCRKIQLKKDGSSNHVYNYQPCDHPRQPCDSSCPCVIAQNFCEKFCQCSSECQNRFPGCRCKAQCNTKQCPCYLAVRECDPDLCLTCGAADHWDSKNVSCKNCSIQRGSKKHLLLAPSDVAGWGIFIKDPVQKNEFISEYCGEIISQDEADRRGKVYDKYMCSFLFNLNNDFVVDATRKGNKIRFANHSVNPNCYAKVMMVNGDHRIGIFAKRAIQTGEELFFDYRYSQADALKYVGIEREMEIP
UniProt O75530: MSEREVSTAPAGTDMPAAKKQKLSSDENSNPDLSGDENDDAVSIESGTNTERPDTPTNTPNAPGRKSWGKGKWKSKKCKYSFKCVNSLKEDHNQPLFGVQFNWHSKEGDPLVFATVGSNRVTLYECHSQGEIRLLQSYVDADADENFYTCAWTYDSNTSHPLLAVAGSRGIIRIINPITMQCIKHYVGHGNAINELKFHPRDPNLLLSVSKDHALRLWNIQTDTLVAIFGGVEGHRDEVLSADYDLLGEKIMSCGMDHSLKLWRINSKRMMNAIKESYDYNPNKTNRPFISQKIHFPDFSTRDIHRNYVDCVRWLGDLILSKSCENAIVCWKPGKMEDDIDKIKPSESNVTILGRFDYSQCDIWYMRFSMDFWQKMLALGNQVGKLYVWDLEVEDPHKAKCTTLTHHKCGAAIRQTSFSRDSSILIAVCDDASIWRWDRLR
UniProt Q15022: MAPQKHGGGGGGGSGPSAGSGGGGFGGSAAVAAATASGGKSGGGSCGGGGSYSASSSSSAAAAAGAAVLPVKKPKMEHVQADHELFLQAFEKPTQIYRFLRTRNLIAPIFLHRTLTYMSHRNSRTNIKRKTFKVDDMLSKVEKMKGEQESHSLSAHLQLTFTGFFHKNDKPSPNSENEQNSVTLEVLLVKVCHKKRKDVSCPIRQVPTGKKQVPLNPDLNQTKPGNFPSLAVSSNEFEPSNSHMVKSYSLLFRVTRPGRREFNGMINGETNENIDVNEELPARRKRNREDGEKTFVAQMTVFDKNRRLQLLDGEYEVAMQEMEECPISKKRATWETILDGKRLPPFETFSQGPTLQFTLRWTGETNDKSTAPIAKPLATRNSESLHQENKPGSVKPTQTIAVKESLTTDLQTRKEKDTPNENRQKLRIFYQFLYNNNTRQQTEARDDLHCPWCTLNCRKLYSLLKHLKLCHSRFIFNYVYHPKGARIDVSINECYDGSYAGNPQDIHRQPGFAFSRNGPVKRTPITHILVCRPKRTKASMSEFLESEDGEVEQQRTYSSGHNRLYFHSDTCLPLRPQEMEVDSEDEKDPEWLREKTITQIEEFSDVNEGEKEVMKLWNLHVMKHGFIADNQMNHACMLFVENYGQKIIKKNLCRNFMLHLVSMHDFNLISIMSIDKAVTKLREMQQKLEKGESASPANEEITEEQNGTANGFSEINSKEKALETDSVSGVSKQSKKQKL

Experiments:
[1] = molecular target: His-tagged USP7/WT, full length (UniProt Q93009); assay: pull-down; His pull-down: His-tagged USP7 or its deletion mutants purified from Sf9 cells incubated with in vitro-transcribed/translated EZH2, SUZ12 or EED at 4°C overnight; immunoblot; only the target purified
[2] = molecular target: USP7 MATH domain (His-tagged deletion mutant of USP7) (UniProt Q93009); assay: as above
[3] = molecular target: GST-fused EZH2 N1 domain (aa 1-173) (UniProt Q15910); assay: pull-down; GST pull-down: GST-fused EZH2 deletion mutants from E. coli on glutathione-Sepharose 4B beads (washed with 300 mM NaCl buffer) incubated with in vitro-transcribed/translated FLAG-USP7 at 4°C overnight; immunoblot; only the target purified
[4] = molecular target: EZH2 (human (endogenous in A375 and HEK293T)) (UniProt Q15910); assay: SEC; A375 nuclear extracts (high salt extraction) on a Superose 6 size exclusion column, 0.5 ml/min; fractions analysed by western blotting
[5] = molecular target: EZH2 (human (endogenous in A375 and HEK293T)) (UniProt Q15910); assay: co-IP; endogenous proteins; whole cell lysates of A375 and HEK293T cells in NETN buffer (50 mM Tris-HCl pH 8.0, 150 mM NaCl, 0.2% Nonidet P-40, 2 mM EDTA); antibodies 12 h at 4°C, protein G magnetic beads; immunoblot

For “EED, in vitro-transcribed/translated (from UniProt O75530 1-441)”, the binding [1] was “no binding”.
“EZH2, in vitro-transcribed/translated (from UniProt Q15910-2 1-751) (enzyme)” was tested, and the binding [1] was “binds” and the binding [2] was “binds”.
With “FLAG-USP7, in vitro-transcribed/translated (from UniProt Q93009 1-1102) (enzyme)” the binding [3] was “binds”.
“SUZ12, in vitro-transcribed/translated (from UniProt Q15022 1-739)” was tested, and the binding [1] was “no binding”.
“ubiquitin-specific protease 7 (USP7) (from UniProt Q93009 1-1102) (enzyme)” was tested, and the binding [4] was “binds” and the binding [5] was “binds”.
